# Measurements taken from publication PMC5996148.
# Some of the results follow.
# Assays:
# Assay in all cases: protein microarray (ProtoArray v5.0), streptavidin-Alexa Fluor 647
# Details in all cases: 3'-biotin; 20 mM Tris (pH 7.5), 5 mM MgCl2, 100 mM KCl, 0.1% Tween-20, A/T-rich and random oligonucleotide blockers; temperature not stated; high values mean tight binding
# [1] = test system: Sequestosome-1 (human)
# [2] = test system: Serine/threonine-protein kinase 12 (human)
# [3] = test system: Serine/threonine-protein kinase MRCK alpha (human)
# [4] = test system: Serine/threonine-protein kinase ULK4 (human)
# [5] = test system: Serine/threonine-protein kinase VRK2 (human)
# [6] = test system: Serine/threonine-protein kinase VRK3 (human)
# [7] = test system: Serine/threonine-protein phosphatase 2A 56 kDa regulatory subunit gamma isoform (human)
# [8] = test system: Serine/threonine-protein phosphatase 2A 65 kDa regulatory subunit A beta isoform (human)
# [9] = test system: Serologically defined colon cancer antigen 3 (human)
# [10] = test system: Serum albumin (human)
# [11] = test system: Serum amyloid A protein (human)
# [12] = test system: Signal recognition particle 9 kDa protein (human)
# [13] = test system: Signal transducer and activator of transcription 4 (human)
# [14] = test system: Signal transducer and activator of transcription 6 (human)
# [15] = test system: Smith-Magenis syndrome chromosome region candidate gene 7 protein (human)
# [16] = test system: Sodium channel and clathrin linker 1 (human)
# [17] = test system: Sodium channel subunit beta-1 (human)
# [18] = test system: Sodium/glucose cotransporter 2 (human)
# [19] = test system: Solute carrier family 22 member 12 (human)
# [20] = test system: Solute carrier family 35 member F2 (human)
sequence,measurement,setting,value
GGGGACAGGGGTATGGGGAGGGG [G4-3 biotinylated (CtG)],binding signal,[1],-0.305 z-score
same,binding signal,[2],5.47 z-score
same,binding signal,[3],-0.337 z-score
same,binding signal,[4],-0.312 z-score
same,binding signal,[5],3.28 z-score
same,binding signal,[6],3.14 z-score
same,binding signal,[7],-0.336 z-score
same,binding signal,[8],-0.337 z-score
same,binding signal,[9],-0.326 z-score
same,binding signal,[10],-0.331 z-score
same,binding signal,[11],-0.302 z-score
same,binding signal,[12],-0.33 z-score
same,binding signal,[13],-0.322 z-score
same,binding signal,[14],-0.319 z-score
same,binding signal,[15],-0.337 z-score
same,binding signal,[16],-0.332 z-score
same,binding signal,[17],-0.327 z-score
same,binding signal,[18],-0.33 z-score
same,binding signal,[19],-0.323 z-score
same,binding signal,[20],-0.322 z-score

# Part of the list above, reformatted.
sequence | measurement | setting | value
GGGGACAGGGGTATGGGGAGGGG [G4-3 biotinylated (CtG)] | binding signal | [3] | -0.337 z-score
same | binding signal | [4] | -0.312 z-score
same | binding signal | [5] | 3.28 z-score
same | binding signal | [6] | 3.14 z-score
